Measurements reported in PubChem BioAssay AID602196 (INSERM, 2012)
Here is an unselected part of about 23,000 reagents tested. 455 of all reagents (2%) were called active. 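Active includes both protection and sensitisation; some change values fall well beyond the stated -50 to +50 range.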 Reagents against one gene are numbered here. Not all columns of the deposit are shown. Reagent sequences are not shown. The record does not give: the amount of reagent.

Aim: 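Knock-downs that protect lung cancer cells from cisplatin or sensitise them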
Cells: human A549 lung cancer cells
Knock-down reagent: siRNA pair against human genes
Duration: 48 h transfection before cisplatin; time from cisplatin to read-out not stated
Treatment: cisplatin at a dose killing half of control-siRNA cells; exact dose and duration not given
Detection: 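Shift in cisplatin death relative to control siRNA, from -50 (all cells die) to +50 (no cells die); siRNAs harmful on their own scored 0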
Reading the numbers: two-siRNA summed score (-2 to +2): higher = both siRNAs protect from cisplatin killing; -2 means both sensitise; mean protection from cisplatin (shift in death) and protection from cisplatin (shift in death), siRNA C: higher = protection from cisplatin killing
Call rule: 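siRNAs harmful alone (LDH or WST-1) get 0; others get +1 for less and -1 for more cisplatin killing; genes are active when the two siRNAs give the same sign, summing to ±2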
Meaning of the calls: active = both siRNAs shift cisplatin killing the same way; inactive = no consistent shift, or siRNA harmful alone

gene,reagent,two-siRNA summed score (-2 to +2),mean protection from cisplatin (shift in death) (%),"protection from cisplatin (shift in death), siRNA C (%)",activity call
LOC442671,1,0,16.4,16.7,inactive
LOC138729,1,0,12,21.6,inactive
TUBB4B,1,0,5.1,12.5,inactive
ELK3,1,1,2.7,14.2,inactive
SYT8,1,0,-7.3,2.4,inactive
ZNF331,1,-1,-8.8,-6.6,inactive
RNF112,1,0,0.9,2.9,inactive
H2BC13,1,0,17.4,24.6,inactive
LOC440502,1,0,7.3,11.1,inactive
LOC130678,1,0,7.6,10.3,inactive
DPP3,1,-1,-0.6,9.8,inactive
SEMA4D,1,-1,2.6,15.9,inactive
SEMA4D,2,1,4.9,7.2,inactive
UBD,1,-1,-5.9,13.9,inactive
LOC442429,1,0,9.8,1,inactive
DARS1,1,0,4.4,4,inactive
GALM,1,0,5.2,13.6,inactive
POFUT2,1,0,-6.2,-12.4,inactive
CABP4,1,1,10.6,5.6,inactive
B4GALNT1,1,1,22.8,32.1,inactive
ZACN,1,0,-7.4,-9.1,inactive
SLC25A11,1,-1,-9.2,-26.8,inactive
CD70,1,0,28.8,17.6,inactive
